Earlier results in US10526418B2, “Modulators of ACYL-COA lysocardiolipin acyltransferase 1 (ALCAT1) and uses thereof” (priority 2012, dated 2020).
At least one compound was matched to its structure with a doubt left.

Test system: T4-induced cardiomyopathy
Details: treatment with rapamycin; stated in discussion as background; cited from earlier work

CO[C@H]1C[C@@H]2CC[C@@H](C)[C@@](O)(O2)C(=O)C(=O)N2CCCC[C@H]2C(=O)O[C@H]([C@H](C)C[C@@H]2CC[C@@H](O)[C@H](OC)C2)CC(=O)[C@H](C)/C=C(\C)[C@@H](O)[C@@H](OC)C(=O)[C@H](C)C[C@H](C)/C=C/C=C/C=C/1C [rapamycin]
onset of T4-induced cardiomyopathy: prevents the onset of T4-induced cardiomyopathy
